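Survival of the LAN-5 pediatric tumor line after two days of treatment, estimated through an ATP-based glow signal.
Each compound ran as a dilution series whose top final concentration was mostly 46 µM.
Potency is the fitted concentration giving half-maximal cell killing, so a smaller value means a more potent cytotoxic compound.
Calls come from curve class: inconclusive marks a weak, poorly fitted or top-dose-only cytotoxic curve, scored between 1 and 39.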

Values are in nM.
Every entry below has the call inconclusive.
These entries are mostly ones the record files as inconclusive; other results of the assay are not listed here.
Potencies fitted to partial, single-point or poorly fitting curves are rough.
Some entries filed as inconclusive have a full curve.
Activity scores are not listed here.

structure | fitted potency (nM) | curve
O=C(O)Cc1cccc(OCCCN(Cc2cccc(C(F)(F)F)c2Cl)CC(c2ccccc2)c2ccccc2)c1 | 33173 | cytotoxic, single point
CCOC(=O)NNc1ccc(N(CC)CC(C)O)nn1 (stereo unspecified) | 9441 | cytotoxic, partial curve
CCCC(=O)c1cc(O)c(O)cc1O | 48557 | cytotoxic, single point
CN(C)CCCN1c2ccccc2Sc2ccc(C(F)(F)F)cc21 | 18837 | cytotoxic, partial curve, poor fit
CO/N=C(/C(=O)N[C@@H]1C(=O)N2C(C(=O)O)=C(Cn3nnc(C)n3)CS[C@H]12)c1csc(N)n1 | 2986 | cytotoxic, partial curve, poor fit
CCOC(=O)[C@@H](N)Cc1ccc(-c2cc(O[C@H](c3ccc(Cl)cc3-n3ccc(C)n3)C(F)(F)F)nc(N)n2)cc1 | 37221 | cytotoxic, single point
O=C1c2cccc(O)c2C(=O)c2c(O)cccc21 | 33498 | cytotoxic, single point
c1ccc2c(CN3CCNCC3)cccc2c1 | 37221 | cytotoxic, single point
CC(C)c1cc(C(C)C)c(CC(=O)NS(=O)(=O)Oc2c(C(C)C)cccc2C(C)C)c(C(C)C)c1 | 26350 | cytotoxic, single point
C[C@](Cc1c[nH]c2ccccc12)(NC(=O)OC1C2CC3CC(C2)CC1C3)C(=O)NC[C@H](NC(=O)CCC(=O)O)c1ccccc1 (stereo partly specified) | 37221 | cytotoxic, single point
c1cc(CN2CCCCC2)cc(OCCCNc2nc3ccccc3s2)c1 | 21136 | cytotoxic, single point
C[C@]12C=CC(=O)C=C1CC[C@@H]1[C@@H]2C(=O)C[C@@]2(C)[C@H]1CC[C@]2(O)C(=O)CO | 14440 | cytotoxic, single point
CC(=O)C1=C(O)C=C2Oc3c(C(C)=O)c(O)c(C)c(O)c3C2(C)C1=O (stereo unspecified) | 2348 | cytotoxic, full curve
CCCn1c(=O)c2[nH]c(C34CC5CC3C[C@@H](C5)C4)nc2n(CCC)c1=O | 14817 | cytotoxic, partial curve
COc1cc2c(cc1OC)C(=O)C(CC1CCN(Cc3ccccc3)CC1)C2 (stereo unspecified) | 7499 | cytotoxic, partial curve
CNC1CCC(N(Cc2cccc(-c3ccncc3)c2)C(=O)c2sc3ccccc3c2Cl)CC1 (stereo unspecified) | 23484 | cytotoxic, single point
O=C(OCCOCCO)c1ccccc1Nc1cccc(C(F)(F)F)c1 | 29855 | cytotoxic, single point
CC(=O)[C@H]1CC[C@H]2[C@@H]3C=CC4=CC(=O)CC[C@@]4(C)[C@@H]3CC[C@]12C | 23715 | cytotoxic, single point
COc1ccc2c(c1OC)C(=O)O[C@@H]2[C@H]1c2c(cc3c(c2OC)OCO3)CCN1C | 26608 | cytotoxic, single point
CCc1cc2cc(OC)c(OC)cc2c(Cc2ccccc2)n1 | 1 | cytotoxic, full curve, poor fit
FC(F)(F)c1ccc(Nc2nc3ccc(Oc4ccnc(-c5ncc(C(F)(F)F)[nH]5)c4)cc3[nH]2)cc1 | 37221 | cytotoxic, single point
CC(=O)Nc1ccc([C@H](C)C(=O)Nc2ncc(C(C)C)s2)cc1 | 589.9 | cytotoxic, full curve
Clc1ccc(C2(c3ccc(-c4cn[nH]c4)cc3)CCNCC2)cc1 | 16626 | cytotoxic, partial curve
C[C@]12CC[C@H](O)CC1=CC[C@H]1[C@H]3CCC(=O)[C@@]3(C)CC[C@@H]12 | 29565 | cytotoxic, single point
CCCCCCCC/C=C\CCCCCCCC(=O)NCc1ccc(O)c(OC)c1 | 4732 | cytotoxic, partial curve, poor fit
O=C(Oc1cccc2cccnc12)c1ccccc1 | 9441 | cytotoxic, partial curve, poor fit

3 of the entries, repeated:

* CCc1cc2cc(OC)c(OC)cc2c(Cc2ccccc2)n1 | fitted potency 1 nM (cytotoxic, full curve, poor fit)
* COc1ccc2c(c1OC)C(=O)O[C@@H]2[C@H]1c2c(cc3c(c2OC)OCO3)CCN1C | fitted potency 26608 nM (cytotoxic, single point)
* CC(=O)Nc1ccc([C@H](C)C(=O)Nc2ncc(C(C)C)s2)cc1 | fitted potency 589.9 nM (cytotoxic, full curve)

Data taken from PubChem BioAssay AID1347100, deposited by NCATS (2019).